# Measured values: paper PMC7090148 (2020)
# Results are given in words; binding and its absence hold for the method and conditions named. In cells and extracts the contact can be indirect. Some results given as binding are weak or reduced against the parent protein; the word gives no strength. Where a sequence is shown, tags or fusion partners need not be part of it.
# T1: Mouse OFD1 G139S (mouse) (UniProt Q80Z25)
# T1 sequence: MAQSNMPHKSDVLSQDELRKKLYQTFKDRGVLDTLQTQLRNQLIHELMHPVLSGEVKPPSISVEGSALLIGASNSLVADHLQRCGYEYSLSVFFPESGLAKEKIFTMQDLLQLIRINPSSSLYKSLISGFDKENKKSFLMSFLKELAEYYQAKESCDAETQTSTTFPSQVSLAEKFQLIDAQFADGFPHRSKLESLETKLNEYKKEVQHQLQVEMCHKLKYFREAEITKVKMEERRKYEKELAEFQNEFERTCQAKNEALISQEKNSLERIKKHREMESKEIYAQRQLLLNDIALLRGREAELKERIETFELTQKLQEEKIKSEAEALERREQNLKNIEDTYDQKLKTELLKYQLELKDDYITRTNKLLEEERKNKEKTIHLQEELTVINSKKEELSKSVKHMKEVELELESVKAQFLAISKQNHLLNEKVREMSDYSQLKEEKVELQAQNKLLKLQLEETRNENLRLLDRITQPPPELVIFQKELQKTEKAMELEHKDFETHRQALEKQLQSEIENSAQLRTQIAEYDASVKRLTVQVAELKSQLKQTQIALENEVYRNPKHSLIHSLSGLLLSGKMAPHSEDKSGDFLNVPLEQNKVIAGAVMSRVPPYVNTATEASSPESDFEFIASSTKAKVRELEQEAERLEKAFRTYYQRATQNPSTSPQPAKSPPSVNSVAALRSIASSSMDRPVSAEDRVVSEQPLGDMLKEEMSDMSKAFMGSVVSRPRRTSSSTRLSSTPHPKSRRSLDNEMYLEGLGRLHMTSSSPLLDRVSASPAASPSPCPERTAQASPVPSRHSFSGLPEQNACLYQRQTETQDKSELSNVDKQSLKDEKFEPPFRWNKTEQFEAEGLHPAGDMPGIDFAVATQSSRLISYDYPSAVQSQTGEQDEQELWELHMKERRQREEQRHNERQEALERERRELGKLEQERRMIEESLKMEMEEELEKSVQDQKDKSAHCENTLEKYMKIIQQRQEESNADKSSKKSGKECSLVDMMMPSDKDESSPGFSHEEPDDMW
# T2: Mouse OFD1 A80T (mouse) (UniProt Q80Z25)
# T2 sequence: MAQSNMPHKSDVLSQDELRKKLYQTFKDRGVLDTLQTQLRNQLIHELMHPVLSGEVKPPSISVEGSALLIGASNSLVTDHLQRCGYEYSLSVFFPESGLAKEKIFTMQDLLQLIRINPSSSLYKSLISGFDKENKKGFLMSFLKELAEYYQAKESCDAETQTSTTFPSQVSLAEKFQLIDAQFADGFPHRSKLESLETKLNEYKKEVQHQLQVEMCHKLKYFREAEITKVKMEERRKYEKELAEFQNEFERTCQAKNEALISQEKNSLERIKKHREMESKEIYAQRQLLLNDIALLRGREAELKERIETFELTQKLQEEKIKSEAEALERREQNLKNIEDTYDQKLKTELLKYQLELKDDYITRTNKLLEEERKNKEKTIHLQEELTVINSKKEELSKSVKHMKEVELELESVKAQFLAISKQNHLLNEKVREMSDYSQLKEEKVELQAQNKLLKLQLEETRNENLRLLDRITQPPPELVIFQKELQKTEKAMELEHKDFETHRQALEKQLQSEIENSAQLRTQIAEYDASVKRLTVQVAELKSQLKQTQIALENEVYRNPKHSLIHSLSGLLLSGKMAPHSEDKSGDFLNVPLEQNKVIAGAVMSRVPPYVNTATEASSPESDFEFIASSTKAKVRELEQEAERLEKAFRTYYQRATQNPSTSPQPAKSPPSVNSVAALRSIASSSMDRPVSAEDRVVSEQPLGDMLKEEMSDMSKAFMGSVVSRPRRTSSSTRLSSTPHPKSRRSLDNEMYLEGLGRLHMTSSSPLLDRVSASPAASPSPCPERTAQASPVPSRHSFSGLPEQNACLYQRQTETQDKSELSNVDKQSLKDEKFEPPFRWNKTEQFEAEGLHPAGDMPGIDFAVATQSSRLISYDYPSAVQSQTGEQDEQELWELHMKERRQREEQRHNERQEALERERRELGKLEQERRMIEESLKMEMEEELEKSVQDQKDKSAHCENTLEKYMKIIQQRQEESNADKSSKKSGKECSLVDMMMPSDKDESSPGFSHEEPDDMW
# Experiments:
# Mouse OFD1 G139S (mouse) = molecular target: T1, Mouse OFD1 G139S (mouse); assay: co-IP; OFD1 mutants co-expressed with TRAPPC8 or TRAPPC12; IP efficiency as ratio of immunoprecipitated TRAPPC8/OFD1 or TRAPPC12/OFD1; cell line and IP antibody not stated for this panel
# Mouse OFD1 A80T (mouse) = molecular target: T2, Mouse OFD1 A80T (mouse); assay: as above
binder,measurement,setting,value
"NTAP-tagged TRAPPC12 (protein, UniProt Q8K2L8 1-797) METAKDGEQSPSEASPSAQAGPENIPEPMSREEESQPLYHEETIDLGGDEFASEENEPTSEGSHNFGDKLNEHMMESVLISDSPNNSEGDVGDLGCLQDVGEPPRGATDHRLPSSTDKEVVDTLSNGSETDGDDTPRDISDMTPDSRASLKEDSTQEDVTSMPALENAATEEVGPKDSLAPREEQTSEVSSNQSSSKDEPLPVCTIFSQATATPSQPHLFLQDGFESQMVKSPSFSSTSETSAKTPPPMVQPSPSLSTFFGDTMSSNSLASDFFDSFTTSTFISVSNPNAGSPVPEKLSSLTAPVGEKSPDSTSPSYSTRMDRSESGVSRAPLDVPESPKPFSQIQAVFAGSDDPFATALSMSEMDRRNDAWLPSQATREVLMSVATQQYGTVFIDKENLTMPGLKFDNIQGDAVKDLMLRFLGEKAAAKRQVLNASSVEQSFVGLKQLISCRNWRAAVDLCGRLLTAHGQGYGKNGLPTSHTTDSLQLWFVRLALLVKLGLFQNAEMEFEPFGNLDQPDLYYEYYPHVYPGRRGSMVPFSMRILHAELQQYLGNPQESLDRLHRVKTVCSKILANLEQGLAEDGGLSSVTQESRQASVQLWRSRLGRVLYSMANCLLLMKDYVLAVDAYLTVIKYYPEQEPQLLSGIGRILLQIGDIKTAEKYFQDVEKVTQKLDGLQGKIMVLMNRAFLYLGQNNFAEAHKFFTEILRMDPTNAVANNNAAVCLLYLGKLKDSLRQLEAMVQQDPRHYLHESVLFNLTTMYELESSRSMQKKQSLLEAVASKEGDSFNTQCLKLA",binding,Mouse OFD1 G139S (mouse),binds
same,binding,Mouse OFD1 A80T (mouse),binds
